Test results from the supplement of paper PMC6078165.
± gives the standard deviation of the averaged measurements. Values are relative to the signal before dosing, not to a vehicle control; the signal also falls without drug.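 Fibroblast labels name human fibroblasts: mostly primary ones from tissues such as uterus (C12385, HUF), lung (H6013), bone (Hs27A), adrenal (HADF) and skin (WS1), plus mammary HMF and breast cancer-associated Hs343T. The cancer cells are basal-like or mesenchymal-like triple-negative breast cancer lines. The paper calls a changed response a hit when it shifts by more than 3x the replicate standard deviation. The tissue of the other fibroblasts is not given here.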

Tested on: MDAMB436
Test: relative JC-1 red fluorescence (viability) vs pre-drug, coculture with fibroblast (fraction); higher = more viable cancer cells
Method: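 JC-1 labelled TNBC cells cocultured 1:1 (1,500 cells each) with CellTrace Violet stained primary or stromal fibroblasts in 384-well plates in FluoroBrite medium, treated with one of 42 anticancer drugs at 0.1, 1, 10 or 100 uM. JC-1 red fluorescence (mitochondrial integrity in cancer cells only) was read by plate reader every 8 h for 72 h. Values are normalised to each well's pre-drug value. The stock of one drug was tenfold lower, so its dose labels may be too high.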

CCCCCOC(=O)Nc1nc(=O)n([C@@H]2O[C@H](C)[C@@H](O)[C@H]2O)cc1F [Capecitabine]
relative JC-1 red fluorescence
Details | 8 h | 16 h | 24 h | 32 h | 40 h | 48 h | 56 h | 64 h | 72 h
0.1 µM, coculture fibroblast: C12385 | 0.739 ± 0.012 | 0.6725 ± 0.0064 | 0.627 ± 0.033 | 0.526 ± 0.036 | 0.476 ± 0.043 | 0.448 ± 0.05 | 0.426 ± 0.047 | 0.406 ± 0.047 | 0.403 ± 0.045
0.1 µM, coculture fibroblast: H6013 | 0.816 ± 0.048 | 0.756 ± 0.028 | 0.735 ± 0.045 | 0.719 ± 0.039 | 0.701 ± 0.041 | 0.721 ± 0.032 | 0.676 ± 0.035 | 0.659 ± 0.039 | 0.613 ± 0.04
0.1 µM, coculture fibroblast: H6019 | 0.7133 ± 0.0026 | 0.645 ± 0.017 | 0.608 ± 0.019 | 0.521 ± 0.027 | 0.487 ± 0.034 | 0.467 ± 0.039 | 0.435 ± 0.031 | 0.411 ± 0.03 | 0.385 ± 0.024
0.1 µM, coculture fibroblast: H6076 | 0.717 ± 0.041 | 0.653 ± 0.015 | 0.639 ± 0.017 | 0.595 ± 0.018 | 0.584 ± 0.032 | 0.558 ± 0.033 | 0.572 ± 0.032 | 0.569 ± 0.029 | 0.552 ± 0.035
0.1 µM, coculture fibroblast: H6231 | 0.779 ± 0.036 | 0.684 ± 0.011 | 0.698 ± 0.039 | 0.603 ± 0.044 | 0.585 ± 0.063 | 0.553 ± 0.057 | 0.534 ± 0.073 | 0.515 ± 0.078 | 0.49 ± 0.076
0.1 µM, coculture fibroblast: HADF | 0.814 ± 0.015 | 0.772 ± 0.063 | 0.766 ± 0.044 | 0.741 ± 0.05 | 0.743 ± 0.036 | 0.781 ± 0.036 | 0.716 ± 0.032 | 0.712 ± 0.029 | 0.676 ± 0.017
0.1 µM, coculture fibroblast: HCFa | 0.764 ± 0.033 | 0.705 ± 0.047 | 0.678 ± 0.059 | 0.636 ± 0.065 | 0.611 ± 0.064 | 0.622 ± 0.065 | 0.551 ± 0.067 | 0.542 ± 0.068 | 0.479 ± 0.059
0.1 µM, coculture fibroblast: HCPF | 0.734 ± 0.0099 | 0.663 ± 0.025 | 0.671 ± 0.041 | 0.607 ± 0.044 | 0.603 ± 0.056 | 0.561 ± 0.055 | 0.549 ± 0.046 | 0.532 ± 0.046 | 0.514 ± 0.043
0.1 µM, coculture fibroblast: HHSteC | 0.79 ± 0.078 | 0.767 ± 0.046 | 0.734 ± 0.065 | 0.702 ± 0.055 | 0.688 ± 0.047 | 0.695 ± 0.06 | 0.632 ± 0.057 | 0.617 ± 0.053 | 0.558 ± 0.056
0.1 µM, coculture fibroblast: HMF | 0.733 ± 0.02 | 0.674 ± 0.061 | 0.669 ± 0.084 | 0.617 ± 0.086 | 0.61 ± 0.1 | 0.578 ± 0.1 | 0.58 ± 0.096 | 0.558 ± 0.087 | 0.558 ± 0.091
0.1 µM, coculture fibroblast: HPFa | 0.8801 ± 0.0075 | 0.79701 ± 0.00011 | 0.763 ± 0.022 | 0.71 ± 0.036 | 0.684 ± 0.043 | 0.69 ± 0.05 | 0.61 ± 0.051 | 0.579 ± 0.048 | 0.505 ± 0.052
0.1 µM, coculture fibroblast: HUF | 0.836 ± 0.014 | 0.702 ± 0.011 | 0.6638 ± 0.0057 | 0.5871 ± 0.0013 | 0.527 ± 0.011 | 0.501 ± 0.013 | 0.479 ± 0.012 | 0.469 ± 0.013 | 0.4563 ± 0.0039
0.1 µM, coculture fibroblast: Hs5 | 0.73 ± 0.032 | 0.69 ± 0.032 | 0.675 ± 0.024 | 0.622 ± 0.026 | 0.603 ± 0.011 | 0.568 ± 0.013 | 0.568 ± 0.0073 | 0.536 ± 0.0057 | 0.533 ± 0.007
0.1 µM, coculture fibroblast: Hs27A | 0.817 ± 0.037 | 0.729 ± 0.059 | 0.717 ± 0.057 | 0.683 ± 0.064 | 0.647 ± 0.054 | 0.703 ± 0.026 | 0.602 ± 0.035 | 0.58 ± 0.023 | 0.503 ± 0.028
0.1 µM, coculture fibroblast: Hs343T | 0.743 ± 0.0099 | 0.667 ± 0.016 | 0.622 ± 0.037 | 0.569 ± 0.041 | 0.541 ± 0.048 | 0.503 ± 0.041 | 0.493 ± 0.042 | 0.48 ± 0.049 | 0.476 ± 0.053
0.1 µM, coculture fibroblast: WS1 | 0.757 ± 0.013 | 0.682 ± 0.032 | 0.63 ± 0.028 | 0.544 ± 0.019 | 0.487 ± 0.013 | 0.453 ± 0.01 | 0.422 ± 0.0058 | 0.3923 ± 0.0027 | 0.374 ± 0.0067
1 µM, coculture fibroblast: C12385 | 0.8378 ± 0.0046 | 0.6909 ± 0.0025 | 0.677 ± 0.0083 | 0.603 ± 0.0092 | 0.561 ± 0.017 | 0.543 ± 0.023 | 0.528 ± 0.034 | 0.514 ± 0.035 | 0.511 ± 0.039
1 µM, coculture fibroblast: H6013 | 0.8424 ± 0.0027 | 0.739 ± 0.012 | 0.7203 ± 0.0072 | 0.719 ± 0.013 | 0.7034 ± 0.00077 | 0.73561 ± 0.00023 | 0.694 ± 0.0064 | 0.685 ± 0.016 | 0.641 ± 0.0032
1 µM, coculture fibroblast: H6019 | 0.71 ± 0.026 | 0.63 ± 0.0028 | 0.601 ± 0.023 | 0.52 ± 0.022 | 0.476 ± 0.038 | 0.464 ± 0.037 | 0.431 ± 0.047 | 0.403 ± 0.056 | 0.37 ± 0.051
1 µM, coculture fibroblast: H6076 | 0.737 ± 0.018 | 0.6095 ± 0.0056 | 0.638 ± 0.0072 | 0.6133 ± 0.004 | 0.606 ± 0.013 | 0.599 ± 0.018 | 0.616 ± 0.02 | 0.618 ± 0.019 | 0.617 ± 0.014
1 µM, coculture fibroblast: H6231 | 0.753 ± 0.046 | 0.673 ± 0.062 | 0.67 ± 0.047 | 0.601 ± 0.037 | 0.58 ± 0.021 | 0.55 ± 0.026 | 0.529 ± 0.028 | 0.51 ± 0.014 | 0.486 ± 0.022
1 µM, coculture fibroblast: HADF | 0.891 ± 0.09 | 0.752 ± 0.067 | 0.7 ± 0.014 | 0.684 ± 0.03 | 0.738 ± 0.13 | 0.728 ± 0.076 | 0.763 ± 0.21 | 0.682 ± 0.089 | 0.699 ± 0.16
1 µM, coculture fibroblast: HCFa | 0.784 ± 0.04 | 0.675 ± 0.032 | 0.653 ± 0.045 | 0.614 ± 0.038 | 0.583 ± 0.034 | 0.602 ± 0.038 | 0.541 ± 0.034 | 0.525 ± 0.03 | 0.468 ± 0.024
1 µM, coculture fibroblast: HCPF | 0.748 ± 0.0087 | 0.663 ± 0.022 | 0.662 ± 0.015 | 0.614 ± 0.013 | 0.599 ± 0.026 | 0.576 ± 0.033 | 0.56 ± 0.022 | 0.557 ± 0.024 | 0.543 ± 0.032
1 µM, coculture fibroblast: HHSteC | 0.898 ± 0.011 | 0.838 ± 0.022 | 0.844 ± 0.014 | 0.82 ± 0.012 | 0.82 ± 0.015 | 0.8236 ± 0.0015 | 0.7633 ± 0.0046 | 0.7353 ± 0.0011 | 0.6845 ± 0.0055
1 µM, coculture fibroblast: HMF | 0.7606 ± 0.0055 | 0.629 ± 0.013 | 0.627 ± 0.011 | 0.588 ± 0.0078 | 0.574 ± 0.016 | 0.54 ± 0.018 | 0.543 ± 0.011 | 0.527 ± 0.0075 | 0.519 ± 0.0082
1 µM, coculture fibroblast: HPFa | 0.906 ± 0.099 | 0.869 ± 0.1 | 0.87 ± 0.13 | 0.852 ± 0.16 | 0.858 ± 0.17 | 0.817 ± 0.069 | 0.808 ± 0.18 | 0.786 ± 0.18 | 0.712 ± 0.19
1 µM, coculture fibroblast: HUF | 0.858 ± 0.048 | 0.738 ± 0.061 | 0.718 ± 0.078 | 0.647 ± 0.092 | 0.59 ± 0.095 | 0.571 ± 0.086 | 0.539 ± 0.088 | 0.523 ± 0.088 | 0.51 ± 0.087
1 µM, coculture fibroblast: Hs5 | 0.761 ± 0.033 | 0.6517 ± 0.0017 | 0.6621 ± 0.001 | 0.6193 ± 0.0032 | 0.6096 ± 0.0013 | 0.5761 ± 0.0014 | 0.592 ± 0.0046 | 0.569 ± 0.0073 | 0.56324 ± 0.00031
1 µM, coculture fibroblast: Hs27A | 0.822 ± 0.014 | 0.762 ± 0.02 | 0.722 ± 0.0056 | 0.703 ± 0.011 | 0.683 ± 0.016 | 0.749 ± 0.03 | 0.661 ± 0.03 | 0.636 ± 0.03 | 0.559 ± 0.033
1 µM, coculture fibroblast: Hs343T | 0.772 ± 0.047 | 0.631 ± 0.055 | 0.626 ± 0.044 | 0.594 ± 0.043 | 0.575 ± 0.049 | 0.545 ± 0.044 | 0.538 ± 0.045 | 0.523 ± 0.043 | 0.527 ± 0.035
1 µM, coculture fibroblast: WS1 | 0.774 ± 0.014 | 0.6704 ± 0.0016 | 0.6537 ± 0.0053 | 0.5827 ± 0.0035 | 0.5368 ± 0.0049 | 0.519 ± 0.011 | 0.495 ± 0.0084 | 0.47 ± 0.0075 | 0.456 ± 0.015
